According to publication PMC10273176:

Test system: thrombin
Assay: EMSA
Conditions: DNA-NPs folded in 1x TAE, 12 mM MgCl2, incubated with thrombin at 37 C for 1.5 h, agarose gel with ethidium bromide, 100 V, binding buffer not otherwise stated, commercial protein, folded or branched DNA

Row | Sequence | binding result (2x molar excess thrombin) | binding result (two- or threefold thrombin excess)
1 | GGACGCTATCCAGTCTAAACATTTTACTATTACCCCCTCTGGCAAAACTTCTTTTGCAAAAGCCTCTCGCTATTTTGGTTTTTATCGTCGTCTGGTAAACGAGGGTTATGATAGTGTTGCTCTTACTATGCCTCGTAATTCCTTTTGGCGTTATGTATCTGCATTAGTTGAATGTGGTATTCCTAAATCTCAACTGATGAATCTTTCTACCTGTAATAATGTTGTTCCGTTAGTTCGTTTTATTAACGTAGATTTAGTCCGTGGTAGGGCAGGTTGGGGTGACTTTCTTCCCAACGTCCTGACTGGTATAATGAGCCAGTTCTTAAAATCGCATAAGGTAATTCACAATGATTAAAGTTGAAATTAAACCATCTCAAGCCCAATTTACTACTCGTTCTGGTGTTTCTCGTCAGGGCAAGCCTTATTCACTGAATGAGCAGCTTTGTTACGTTGATTTGGGTAATGAATATCCGGTTCTTGTCAAGATTACTCTTGATGAAGGTCAGCCAGCCTATGCGCCTGGTCTGTACACCGTTCATCTGTCCTCTTTC | binds | –
2 | GGACGCTATCCAGTCTAAACATTTTACTATTACCCCCTCTGGCAAAACTTCTTTTGCAAAAGCCTCTCGCTATTTTGGTTTTTATCGTCGTCTGGTAAACGAGGGTTATGATAGTGTTGCTCTTACTATGCCTCGTAATTCCTTTTGGCGTTATGTATCTGCATTAGTTGAATGTGGTATTCCTAAATCTCAACTGATGAATCTTTCTACCTGTAATAATGTTGTTCCGTTAGTTCGTTTTATTAACGTAGATTTTTCGATGGTTGGTGTGGTTGGTGGAGCGCCGTCCGGATCGTTTTCTTCCCAACGTCCTGACTGGTATAATGAGCCAGTTCTTAATTCGAAGGTTGGTGTGGTTGGCCGGACGCGCTGCCATTCGTTAATCGCATAAGGTAATTCACAATGATTAAAGTTGAAATTAAATTCGTTGGTTGGTGTGGTTGGCCGACGCCCGTGACGAACGTTCCATCTCAAGCCCAATTTACTACTCGTTCTGGTGTTTCTCGTCAGGGCAAGCCTTATTCACTGAATGAGCAGCTTTGTTACGTTGATTTGGGTAATGAATATCCGGTTCTTGTCAAGATTACTCTTGATGAAGGTCAGCCAGCCTATGCGCCTGGTCTGTACACCGTTCATCTGTCCTCTTTC | – | binds
